The text below walks through data of doi:10.1101/2020.09.01.277764.

Results are given in words; binding and its absence hold for the method and conditions named. Binding seen in cells or lysates may run through a third protein.

This test deals with T1, Rabaptin5 (endogenous) (human (endogenous in HeLa and HEK293A)) (UniProt Q15276).
T1 sequence: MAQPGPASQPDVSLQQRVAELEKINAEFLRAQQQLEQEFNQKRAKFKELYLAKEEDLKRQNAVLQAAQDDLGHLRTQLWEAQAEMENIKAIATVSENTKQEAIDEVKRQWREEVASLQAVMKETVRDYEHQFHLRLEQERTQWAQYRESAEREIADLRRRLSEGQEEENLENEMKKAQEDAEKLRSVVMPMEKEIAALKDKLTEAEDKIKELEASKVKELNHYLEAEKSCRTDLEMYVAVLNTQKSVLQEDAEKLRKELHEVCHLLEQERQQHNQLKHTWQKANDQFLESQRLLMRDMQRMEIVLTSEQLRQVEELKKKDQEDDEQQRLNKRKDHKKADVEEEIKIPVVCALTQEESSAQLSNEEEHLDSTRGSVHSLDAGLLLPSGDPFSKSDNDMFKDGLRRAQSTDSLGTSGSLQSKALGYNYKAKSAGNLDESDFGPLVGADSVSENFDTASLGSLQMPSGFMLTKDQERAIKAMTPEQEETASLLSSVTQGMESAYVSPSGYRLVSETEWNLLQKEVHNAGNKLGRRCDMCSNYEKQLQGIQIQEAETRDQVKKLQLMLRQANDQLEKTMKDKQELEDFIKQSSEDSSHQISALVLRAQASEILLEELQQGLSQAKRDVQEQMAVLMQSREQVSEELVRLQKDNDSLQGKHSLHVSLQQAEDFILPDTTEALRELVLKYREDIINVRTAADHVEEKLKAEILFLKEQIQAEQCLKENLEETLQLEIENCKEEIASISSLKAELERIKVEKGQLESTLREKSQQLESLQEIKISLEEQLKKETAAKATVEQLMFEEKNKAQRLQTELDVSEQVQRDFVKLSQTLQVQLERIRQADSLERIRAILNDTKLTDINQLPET
Description: co-IP.

For “mCherry-ATG16L1 lacking the WD domain (domain or fragment)”, the binding result is on record as “no binding”.
